Data from patent US12162865B2, “Methods of treating cancer” (Epizyme, Inc., priority 2012, dated 2024).
Like-named read-outs stand apart in the source and are kept apart here.

How the values were obtained:
[1] = tested on: A204 cells; assay: cells; details: Homo sapiens
[2] = tested on: G402 cells; assay: cells; details: Homo sapiens, G-402, 336 h, read-out: Proliferation IC50 on Day 14
[3] = tested on: 293 cells; assay: cells; details: Homo sapiens, HEK293, 336 h, read-out: Proliferation IC50 on Day 14
[4] = tested on: Toledo cells; assay: cells; details: Homo sapiens, 264 h, read-out: Proliferation IC50
[5] = tested on: RD cells; assay: cells; details: Homo sapiens
[6] = tested on: H3K27Me3 in SU-DHL-6 cells; assay: cells; details: Homo sapiens, SU-DHL-6, 96 h, read-out: Methylation IC50
[7] = tested on: H3K27Me3 in G401 cells; assay: cells; details: Homo sapiens, G-401, 96 h, read-out: Methylation IC50
[8] = tested on: H3K27Me3 in G402 cells; assay: cells; details: Homo sapiens, G-402, 96 h, read-out: Methylation IC50
[9] = tested on: H3K27Me3 in Karpas-422 cells; assay: cells; details: Homo sapiens, KARPAS-422, 96 h, read-out: Methylation IC50
[10] = tested on: H3K27Me3 in KYM-1 cells; assay: cells; details: 96 h, read-out: Methylation IC50
[11] = tested on: SJCRH30 cells; details: read-out: Proliferation IC50 on Day 14; SJCRH30, SMARCB1 wild-type; Table 6; two single experiments, mean not possible
[12] = tested on: Pfeiffer cells; assay: cells; details: Homo sapiens, 264 h, read-out: Proliferation IC50
[13] = tested on: SJCRH30 cells; assay: cells
[14] = tested on: SU-DHL-6 cells; assay: cells; details: Homo sapiens, SU-DHL-6, 264 h, read-out: Proliferation IC50
[15] = tested on: DOHH-2 cells; assay: cells; details: Homo sapiens, DOHH-2, 264 h, read-out: Proliferation IC50
[16] = tested on: H3K27Me3 in SJCRH30 cells; assay: cells; details: 96 h, read-out: Methylation IC50
[17] = tested on: OCI-LY19 cells; assay: cells; details: Homo sapiens, OCI-LY19, 264 h, read-out: Proliferation IC50
[18] = tested on: H3K27Me3 in A204 cells; assay: cells; details: Homo sapiens, A204, 96 h, read-out: Methylation IC50
[19] = tested on: H3K27Me3 in 293 cells; assay: cells; details: Homo sapiens, HEK293, 96 h, read-out: Methylation IC50
[20] = tested on: H3K27Me3 in RD cells; assay: cells; details: Homo sapiens, 96 h, read-out: Methylation IC50
[21] = tested on: G401 cells; assay: cells; details: Homo sapiens
[22] = tested on: KYM-1 cells; assay: cells; details: 336 h, read-out: Proliferation IC50 on Day 14
[23] = tested on: Karpas-422 cells; assay: cells; details: Homo sapiens, KARPAS-422, 264 h, read-out: Proliferation IC50
[24] = tested on: H3K27Me3 in RL cells; assay: cells; details: Homo sapiens, 96 h, read-out: Methylation IC50
[25] = tested on: Farage cells; assay: cells; details: Homo sapiens, 264 h, read-out: Proliferation IC50

SMILES: CCN(c1cc(-c2ccc(CN3CCOCC3)cc2)cc(C(=O)NCc2c(C)cc(C)[nH]c2=O)c1C)C1CCOCC1 [Compound A, N-((4,6-dimethyl-2-oxo-1,2-dihydropyridin-3-yl)methyl)-5-(ethyl (tetrahydro-2H-pyran-4-yl)amino)-4-methyl-4′-(morpholinomethyl)-[1,1′-biphenyl]-3-carboxamide]
- IC50 ([1]; A204, 168 h, read-out: Proliferation IC50, day 7): 3200 nM
- IC50 ([1]; A204, 336 h, read-out: Proliferation IC50, day 14): 140 nM
- IC50 ([1]; A204, 336 h, read-out: Proliferation IC50 on Day 14): 590 nM
- IC50 [2]: 144 nM
- IC50 [3]: > 10000 nM
- IC50 [4]: 7600 nM
- IC50 ([5]; 168 h, read-out: Proliferation IC50, day 7): 9200 nM
- IC50 ([5]; 336 h, read-out: Proliferation IC50, day 14): 5200 nM
- IC50 [6]: 20 nM
- IC50 [7]: 2.7 nM
- IC50 [8]: 1.7 nM
- IC50 [9]: 90 nM
- IC50 [10]: 4.3 nM
- IC50 [11]: > 10000 nM
- IC50 [12]: 0.49 nM
- IC50 ([13]; 168 h, read-out: Proliferation IC50, day 7, SJCRH30, SMARCB1 Wild Type, Table 3): 6100 nM
- IC50 ([13]; 336 h, read-out: Proliferation IC50, day 14, SJCRH30, SMARCB1 Wild Type, Table 3): 8800 nM
- IC50 ([13]; 336 h, read-out: Proliferation IC50 on Day 14, SJCRH30, SMARCB1 wild-type, Table 6, two single experiments, mean not possible): 5100 nM
- IC50 [14]: 4.7 nM
- IC50 [15]: 1700 nM
- IC50 [16]: 4.9 nM
- IC50 [17]: 6200 nM
- IC50 [18]: 1.4 nM
- IC50 [19]: 2.4 nM
- IC50 [20]: 5.6 nM
- IC50 ([21]; G-401, 168 h, read-out: Proliferation IC50, day 7): 87 nM
- IC50 ([21]; G-401, 336 h, read-out: Proliferation IC50, day 14): 42 nM
- IC50 ([21]; G-401, 336 h, read-out: Proliferation IC50 on Day 14): 135 nM
- IC50 [22]: 32 nM
- IC50 [23]: 1.8 nM
- IC50 [24]: 22 nM
- IC50 [25]: 99 nM
